According to article PMC5345068 (Scientific Reports, 2017):

Experiments:
3T3 cells = experiment: confocal fluorescence microscopy, 3T3; assay type: cell-based, mouse; settings: 25 μM, 4 hours, excitation 488 nm; compared among treatments, Fig. S-14
[1] = general procedure: Fmoc solid-phase peptide synthesis; 2-chlorotrityl chloride resin (1.0–1.2 mmol/g); HBTU; settings: conjugation step

| Molecule | fluorescent intensity of 3T3 cells (confocal) (3T3 cells) | conjugation yield [1] |
| --- | --- | --- |
| COc1cc(/C=C/C(=O)CC(=O)/C=C/c2ccc(O)c(OC)c2)ccc1O [Cur, Curcumin] | similar | – |
| COc1cc(/C=C/C(=O)CC(=O)/C=C/c2ccc(OC(=O)CCCC(=O)NCCCC[C@H](NC(=O)[C@H](Cc3ccc(O)cc3)NC(=O)[C@H](Cc3ccccc3)NC(=O)[C@H](Cc3ccccc3)NC(=O)CNC(=O)[C@@]3(C)CC[C@]4(C)CC[C@]5(C)C(=CC(=O)[C@@H]6[C@@]7(C)CC[C@H](O)C(C)(C)[C@@H]7CC[C@]65C)[C@@H]4C3)C(=O)N[C@@H](CCC(=O)O)C(=O)NCCSSCCNC(=O)CCC(=O)N[C@@H](CCC(=O)O)C(=O)N[C@@H](CCCNC(=N)N)C(=O)NCC(=O)N[C@@H](CC(=O)O)C(=O)O)c(OC)c2)ccc1O [GA-Cur, GA–GFFYK(Cur)E-ss-ERGD] | similar | – |
| COc1cc(/C=C/C(=O)CC(=O)/C=C/c2ccc(OC(=O)CCCC(=O)NCCCC[C@H](NC(=O)[C@H](Cc3ccc(O)cc3)NC(=O)[C@H](Cc3ccccc3)NC(=O)[C@H](Cc3ccccc3)NC(=O)CNC(=O)Cc3ccc4ccccc4c3)C(=O)N[C@@H](CCC(=O)O)C(=O)NCCSSCCNC(=O)CCC(=O)N[C@@H](CCC(=O)O)C(=O)N[C@@H](CCCNC(=N)N)C(=O)NCC(=O)N[C@@H](CC(=O)O)C(=O)O)c(OC)c2)ccc1O [Nap-Cur, Nap–GFFYK(Cur)E-ss-ERGD] | similar | – |
| GA–GFFYK(Cur)E-ss-ERGD | – | about 20% |
